Measured values from the supplement of paper PMC10849652.
This is one part of the list.

Chains of the proteins cited; added tags and fusions are not shown. Lines headed by an entry give the natural chain unless they say otherwise; changes in a name come on top.
UniProt Q15651: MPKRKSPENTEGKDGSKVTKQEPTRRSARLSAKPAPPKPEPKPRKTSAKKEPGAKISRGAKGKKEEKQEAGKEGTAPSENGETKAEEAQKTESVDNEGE
UniProt Q9NQE9: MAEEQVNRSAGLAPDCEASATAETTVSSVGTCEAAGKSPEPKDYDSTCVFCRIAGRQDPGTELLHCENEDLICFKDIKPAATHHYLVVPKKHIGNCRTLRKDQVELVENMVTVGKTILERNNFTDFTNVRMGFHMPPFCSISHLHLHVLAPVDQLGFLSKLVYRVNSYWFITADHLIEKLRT
UniProt Q01581: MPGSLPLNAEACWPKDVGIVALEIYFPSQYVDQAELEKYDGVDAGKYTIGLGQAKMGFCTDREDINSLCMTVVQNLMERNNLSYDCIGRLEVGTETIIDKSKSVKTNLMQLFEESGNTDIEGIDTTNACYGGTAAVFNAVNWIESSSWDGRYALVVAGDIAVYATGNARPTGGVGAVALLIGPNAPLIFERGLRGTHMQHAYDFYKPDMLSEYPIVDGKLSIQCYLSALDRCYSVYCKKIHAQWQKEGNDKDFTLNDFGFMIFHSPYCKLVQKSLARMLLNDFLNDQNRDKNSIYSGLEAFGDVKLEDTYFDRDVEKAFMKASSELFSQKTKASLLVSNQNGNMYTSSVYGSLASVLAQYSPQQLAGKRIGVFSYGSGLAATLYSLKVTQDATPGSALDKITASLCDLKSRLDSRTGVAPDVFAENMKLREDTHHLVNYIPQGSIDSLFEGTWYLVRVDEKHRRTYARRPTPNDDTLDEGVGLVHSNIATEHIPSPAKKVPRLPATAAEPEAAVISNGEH
UniProt Q92902: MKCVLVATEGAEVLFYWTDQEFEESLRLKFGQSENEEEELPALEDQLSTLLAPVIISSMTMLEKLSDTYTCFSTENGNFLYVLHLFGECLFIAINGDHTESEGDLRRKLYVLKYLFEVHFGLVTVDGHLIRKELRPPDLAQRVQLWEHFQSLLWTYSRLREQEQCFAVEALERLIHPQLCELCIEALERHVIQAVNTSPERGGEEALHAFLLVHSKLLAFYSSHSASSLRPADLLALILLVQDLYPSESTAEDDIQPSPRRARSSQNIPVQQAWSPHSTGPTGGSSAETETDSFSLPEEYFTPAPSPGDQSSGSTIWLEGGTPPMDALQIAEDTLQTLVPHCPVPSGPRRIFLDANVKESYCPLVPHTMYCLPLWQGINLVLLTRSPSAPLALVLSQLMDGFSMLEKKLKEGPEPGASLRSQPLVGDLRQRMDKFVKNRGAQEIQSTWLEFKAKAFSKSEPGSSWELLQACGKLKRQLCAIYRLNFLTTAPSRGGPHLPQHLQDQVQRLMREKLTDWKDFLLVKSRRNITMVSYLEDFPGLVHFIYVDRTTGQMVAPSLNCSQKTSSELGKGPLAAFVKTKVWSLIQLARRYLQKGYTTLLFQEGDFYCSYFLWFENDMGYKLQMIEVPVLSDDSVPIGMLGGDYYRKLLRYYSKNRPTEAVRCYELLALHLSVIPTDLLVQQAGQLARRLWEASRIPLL
UniProt P04439, whole entry, looked up: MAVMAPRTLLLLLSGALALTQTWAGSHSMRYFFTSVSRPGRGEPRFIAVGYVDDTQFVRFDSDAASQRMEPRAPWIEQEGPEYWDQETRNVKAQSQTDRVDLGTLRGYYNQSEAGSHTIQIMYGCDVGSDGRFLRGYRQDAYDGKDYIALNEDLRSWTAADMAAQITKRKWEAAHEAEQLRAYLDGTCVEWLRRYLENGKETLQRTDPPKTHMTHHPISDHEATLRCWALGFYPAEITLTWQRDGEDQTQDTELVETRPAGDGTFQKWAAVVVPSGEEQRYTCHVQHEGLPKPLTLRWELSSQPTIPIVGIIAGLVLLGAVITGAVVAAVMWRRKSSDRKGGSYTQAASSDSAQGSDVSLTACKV
UniProt Q00839, whole entry, looked up: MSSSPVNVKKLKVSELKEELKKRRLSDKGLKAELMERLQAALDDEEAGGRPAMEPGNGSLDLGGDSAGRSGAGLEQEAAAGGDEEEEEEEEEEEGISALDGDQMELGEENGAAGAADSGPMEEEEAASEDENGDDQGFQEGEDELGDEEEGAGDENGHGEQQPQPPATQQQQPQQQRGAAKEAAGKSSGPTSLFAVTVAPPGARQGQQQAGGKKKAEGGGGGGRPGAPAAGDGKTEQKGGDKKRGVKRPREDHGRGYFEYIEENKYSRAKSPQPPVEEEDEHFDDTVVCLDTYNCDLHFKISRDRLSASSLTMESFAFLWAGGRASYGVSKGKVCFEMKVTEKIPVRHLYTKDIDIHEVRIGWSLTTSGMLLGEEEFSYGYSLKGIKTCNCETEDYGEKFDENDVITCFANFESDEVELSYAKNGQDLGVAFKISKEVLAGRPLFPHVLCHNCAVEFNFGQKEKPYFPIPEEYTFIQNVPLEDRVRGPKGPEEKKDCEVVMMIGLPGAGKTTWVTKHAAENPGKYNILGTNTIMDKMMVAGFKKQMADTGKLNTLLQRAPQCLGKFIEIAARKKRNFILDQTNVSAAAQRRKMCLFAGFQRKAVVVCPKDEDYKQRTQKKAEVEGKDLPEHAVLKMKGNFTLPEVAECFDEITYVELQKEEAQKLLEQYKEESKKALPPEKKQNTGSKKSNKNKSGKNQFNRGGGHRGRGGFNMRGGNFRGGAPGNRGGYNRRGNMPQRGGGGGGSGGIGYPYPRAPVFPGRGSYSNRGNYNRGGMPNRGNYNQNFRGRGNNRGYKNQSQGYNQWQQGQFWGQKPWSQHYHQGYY
UniProt Q58FF7, whole entry, looked up: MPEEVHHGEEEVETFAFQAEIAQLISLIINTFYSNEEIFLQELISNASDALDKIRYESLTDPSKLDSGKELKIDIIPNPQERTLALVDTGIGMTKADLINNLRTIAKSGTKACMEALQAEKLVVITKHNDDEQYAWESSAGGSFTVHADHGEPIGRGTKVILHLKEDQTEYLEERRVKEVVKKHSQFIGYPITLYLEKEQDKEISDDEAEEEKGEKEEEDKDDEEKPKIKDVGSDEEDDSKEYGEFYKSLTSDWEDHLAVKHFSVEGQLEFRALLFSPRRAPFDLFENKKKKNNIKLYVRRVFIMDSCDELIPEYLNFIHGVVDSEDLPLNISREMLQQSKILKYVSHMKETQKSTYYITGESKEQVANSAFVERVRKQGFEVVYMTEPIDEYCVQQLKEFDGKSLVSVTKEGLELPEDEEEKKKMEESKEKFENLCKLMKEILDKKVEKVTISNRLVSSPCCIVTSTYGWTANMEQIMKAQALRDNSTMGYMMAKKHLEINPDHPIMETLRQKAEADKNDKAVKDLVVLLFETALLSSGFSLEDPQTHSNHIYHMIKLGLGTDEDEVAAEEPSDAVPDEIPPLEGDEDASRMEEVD
UniProt Q58FF6, whole entry, looked up: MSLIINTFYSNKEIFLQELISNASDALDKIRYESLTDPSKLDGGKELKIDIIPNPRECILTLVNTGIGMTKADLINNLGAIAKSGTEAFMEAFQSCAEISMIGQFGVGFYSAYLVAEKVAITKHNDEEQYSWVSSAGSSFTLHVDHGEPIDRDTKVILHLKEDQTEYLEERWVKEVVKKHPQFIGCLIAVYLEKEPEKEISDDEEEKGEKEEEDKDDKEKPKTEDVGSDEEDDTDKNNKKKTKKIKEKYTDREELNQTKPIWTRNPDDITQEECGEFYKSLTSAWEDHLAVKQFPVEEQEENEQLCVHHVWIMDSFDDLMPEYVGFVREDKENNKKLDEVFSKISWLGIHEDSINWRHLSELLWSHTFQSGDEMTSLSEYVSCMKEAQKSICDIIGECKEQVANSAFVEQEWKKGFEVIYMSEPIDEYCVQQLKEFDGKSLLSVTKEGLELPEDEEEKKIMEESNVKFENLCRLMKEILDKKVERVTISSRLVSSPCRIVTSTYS
UniProt P30939: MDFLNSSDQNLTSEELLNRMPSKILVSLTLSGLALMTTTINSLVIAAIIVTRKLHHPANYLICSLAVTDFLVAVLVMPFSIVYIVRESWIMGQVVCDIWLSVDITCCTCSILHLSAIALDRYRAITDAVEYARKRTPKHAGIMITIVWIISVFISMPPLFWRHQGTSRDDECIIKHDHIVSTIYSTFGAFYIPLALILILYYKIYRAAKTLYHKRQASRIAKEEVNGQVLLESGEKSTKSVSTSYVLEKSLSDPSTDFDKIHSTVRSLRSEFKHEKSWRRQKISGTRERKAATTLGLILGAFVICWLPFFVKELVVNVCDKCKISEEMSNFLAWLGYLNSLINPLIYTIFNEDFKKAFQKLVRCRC
UniProt P41134: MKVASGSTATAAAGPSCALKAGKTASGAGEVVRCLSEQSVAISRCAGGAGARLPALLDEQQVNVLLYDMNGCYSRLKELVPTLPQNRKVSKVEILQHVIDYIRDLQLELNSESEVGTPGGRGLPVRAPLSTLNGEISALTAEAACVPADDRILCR
UniProt Q9NWT6: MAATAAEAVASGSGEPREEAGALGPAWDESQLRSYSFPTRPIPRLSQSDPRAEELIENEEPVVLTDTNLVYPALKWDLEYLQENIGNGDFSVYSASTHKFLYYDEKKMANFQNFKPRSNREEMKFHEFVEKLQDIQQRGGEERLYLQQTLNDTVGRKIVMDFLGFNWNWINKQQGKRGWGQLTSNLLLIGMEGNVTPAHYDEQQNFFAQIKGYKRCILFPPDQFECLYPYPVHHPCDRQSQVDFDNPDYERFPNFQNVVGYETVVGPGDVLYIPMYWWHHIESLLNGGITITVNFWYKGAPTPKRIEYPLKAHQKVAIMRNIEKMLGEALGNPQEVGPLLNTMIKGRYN
UniProt Q96EW2: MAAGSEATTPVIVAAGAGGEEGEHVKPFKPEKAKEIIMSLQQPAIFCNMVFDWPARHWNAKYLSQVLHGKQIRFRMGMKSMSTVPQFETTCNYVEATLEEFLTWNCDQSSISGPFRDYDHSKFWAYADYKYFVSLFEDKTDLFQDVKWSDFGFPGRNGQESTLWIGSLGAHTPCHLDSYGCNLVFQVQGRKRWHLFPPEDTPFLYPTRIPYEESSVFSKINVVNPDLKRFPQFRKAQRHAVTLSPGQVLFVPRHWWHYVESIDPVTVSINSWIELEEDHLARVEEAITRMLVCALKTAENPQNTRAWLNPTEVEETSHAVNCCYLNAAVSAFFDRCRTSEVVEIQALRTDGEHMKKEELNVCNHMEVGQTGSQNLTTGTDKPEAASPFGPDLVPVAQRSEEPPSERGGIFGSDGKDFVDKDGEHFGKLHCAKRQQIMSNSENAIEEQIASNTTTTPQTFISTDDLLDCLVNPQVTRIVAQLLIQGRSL
UniProt Q9NSB8: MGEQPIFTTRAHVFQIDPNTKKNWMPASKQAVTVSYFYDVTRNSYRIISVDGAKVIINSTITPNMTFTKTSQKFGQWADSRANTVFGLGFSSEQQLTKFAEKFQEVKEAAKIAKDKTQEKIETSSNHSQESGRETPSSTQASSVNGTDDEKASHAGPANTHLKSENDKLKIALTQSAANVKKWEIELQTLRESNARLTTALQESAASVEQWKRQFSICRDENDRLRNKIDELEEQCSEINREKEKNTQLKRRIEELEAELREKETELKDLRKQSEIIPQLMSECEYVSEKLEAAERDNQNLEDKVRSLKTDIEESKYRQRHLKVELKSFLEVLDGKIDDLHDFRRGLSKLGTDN
UniProt Q9P0W2: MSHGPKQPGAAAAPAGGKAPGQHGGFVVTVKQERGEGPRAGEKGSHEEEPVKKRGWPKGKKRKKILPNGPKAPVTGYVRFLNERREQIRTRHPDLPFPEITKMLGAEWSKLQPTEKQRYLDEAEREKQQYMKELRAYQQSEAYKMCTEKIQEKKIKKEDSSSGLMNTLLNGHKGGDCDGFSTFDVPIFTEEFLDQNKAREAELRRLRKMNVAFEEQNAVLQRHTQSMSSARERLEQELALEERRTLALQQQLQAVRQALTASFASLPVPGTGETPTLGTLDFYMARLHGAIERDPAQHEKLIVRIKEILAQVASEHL
UniProt P28356, whole entry, looked up: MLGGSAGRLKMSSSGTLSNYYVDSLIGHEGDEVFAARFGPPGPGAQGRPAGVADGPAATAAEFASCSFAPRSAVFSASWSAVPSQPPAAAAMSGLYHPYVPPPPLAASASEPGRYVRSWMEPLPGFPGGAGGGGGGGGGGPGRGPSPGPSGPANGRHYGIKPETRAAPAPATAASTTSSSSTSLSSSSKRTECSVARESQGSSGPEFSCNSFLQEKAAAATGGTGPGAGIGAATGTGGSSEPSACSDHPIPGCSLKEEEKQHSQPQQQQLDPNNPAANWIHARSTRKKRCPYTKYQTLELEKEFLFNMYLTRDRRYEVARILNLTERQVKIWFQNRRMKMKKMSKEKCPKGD
UniProt Q96FZ2: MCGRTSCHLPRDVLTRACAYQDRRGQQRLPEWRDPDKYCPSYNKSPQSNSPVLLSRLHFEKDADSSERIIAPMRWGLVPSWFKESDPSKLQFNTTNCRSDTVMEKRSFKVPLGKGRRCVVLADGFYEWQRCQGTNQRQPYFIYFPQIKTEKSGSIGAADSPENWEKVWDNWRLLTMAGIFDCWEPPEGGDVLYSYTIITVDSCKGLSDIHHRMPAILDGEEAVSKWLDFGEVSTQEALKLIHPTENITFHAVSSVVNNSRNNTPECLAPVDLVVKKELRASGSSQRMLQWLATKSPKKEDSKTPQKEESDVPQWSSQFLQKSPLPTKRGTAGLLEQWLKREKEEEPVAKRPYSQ

What was measured:
Test in all cases: log2 fold change, soluble protein after heating vs DMSO (PISA); higher = thermal stabilisation; K562 cells, 10 uM, 30 min; active = over 0.2 and 3.5 SD of the protein, either way, in both replicates (recomputed)
[1] = compound: C1=CC=C(C=C1)[C@H](COC2=CC3=C(C=C2)NC(=O)N3)NC(=O)C4=CC=CN(C4=O)CC5=CC(=C(C=C5)F)F
In short: (§1)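 K562 cells at 2×10^6 cells/mL were treated for 30 min with 10 μM compound, and aliquots were heated for 3 min over 48°C-58°C before pooling. Extraction used PBS with 0.5% NP-40 at 4°C, and soluble protein was the supernatant after 21,000xg for 90 min, measured by TMTpro 16plex LC-MS/MS with channel sums equalised. Thermal stability values, relative to control samples and from duplicates, are log2 fold changes.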

[2] = compound: CC1=C(SC2=C1C(=N[C@H](C3=NN=C(N32)C)CC(=O)N)C4=CC=C(C=C4)Cl)C
In short: as §1

[3] = compound: CC1=C2C(=CC=C1)N=C(N(C2=O)C3=CC=CC=C3C)CN4C=NC5=C(N=CN=C54)N
In short: as §1

[4] = compound: Cc1sc2c(c1C)C(c1ccc(Cl)cc1)=N[C@@H](CC(=O)OC(C)(C)C)c1nnc(C)n1-2
In short: as §1

[5] = compound: c1ccc([C@@H]2C[C@H]2NC2CCNCC2)cc1
In short: as §1

Measured: log2 fold change

HNRNPA2B1 (UniProt P22626)
inactive: [1] 0.157 | [2] -0.318 | [3] -0.181 | [4] 0.223 | [5] 0.048

HSPE1 (UniProt P61604)
inactive: [1] 0.036 | [2] 0.092 | [3] 0.076 | [4] -0.099 | [5] -0.02

HMGN3 (UniProt Q15651)
inactive: [1] -0.013 | [2] -0.005 | [3] -0.093 | [4] 0.146 | [5] 0.083

HLTF (UniProt Q14527)
inactive: [1] 0.003 | [2] 0.012 | [3] 0.062 | [4] 0 | [5] -0.001

HINT3 (UniProt Q9NQE9)
inactive: [1] -0.017 | [2] 0.042 | [3] 0.008 | [4] -0.029 | [5] 0.022

HMGCS1 (UniProt Q01581)
inactive: [1] 0.029 | [2] -0.007 | [3] 0.006 | [4] -0.004 | [5] 0.023

HSPD1 (UniProt P10809)
inactive: [1] 0.005 | [2] 0.006 | [3] -0.003 | [4] -0.001 | [5] 0.021

HPS1 (UniProt Q92902)
inactive: [1] -0.021 | [2] 0.078 | [3] 0.11 | [4] -0.011 | [5] 0.065

HLCS (UniProt P50747)
inactive: [1] 0.006 | [2] 0.07 | [3] 0.159 | [4] -0.031 | [5] 0.012

HLA-A isoform 2 (UniProt P04439)
inactive: [2] -0.176 | [5] -0.013

HNRNPU isoform 2 (UniProt Q00839)
inactive: [4] 0.154

HSP90AB3P (UniProt Q58FF7)
inactive: [1] -0.059 | [2] 0.095 | [5] 0.034

HNRNPUL1 (UniProt M0R247)
inactive: [2] 0.079 | [4] 0.204 | [5] 0.122

HNRNPR (UniProt O43390)
inactive: [1] 0.148 | [2] -0.131 | [5] 0.099

HIST2H2BC (UniProt Q6DN03)
inactive: [1] 0.136 | [3] -0.298 | [4] -0.198

HUWE1 isoform 2 (UniProt Q7Z6Z7)
inactive: [2] 0.114 | [5] 0.226

ICA1 isoform 2 (UniProt Q05084)
inactive: [2] 0.166 | [5] -0.014

HOOK2 (UniProt Q96ED9)
inactive: [2] 0.145 | [4] 0.017 | [5] -0.04

ICOSLG isoform 2 (UniProt O75144)
inactive: [1] -0.078 | [3] 0.382

HSP90AB4P (UniProt Q58FF6)
inactive: [1] -0.214 | [2] 0.289 | [4] -0.099 | [5] -0.069

HSP90AA2P (UniProt Q14568)
inactive: [4] 0.006

HOMER3 (UniProt Q9NSC5)
inactive: [2] 0.018 | [5] -0.03

HPS4 isoform 4 (UniProt Q9NQG7)
inactive: [4] -0.247

HOOK1 (UniProt Q9UJC3)
inactive: [3] 0.064

3 consecutive entries out of the list so far, quoted:
HSP90AB4P (UniProt Q58FF6)
inactive: [1] -0.214 | [2] 0.289 | [4] -0.099 | [5] -0.069

HSP90AA2P (UniProt Q14568)
inactive: [4] 0.006

HOMER3 (UniProt Q9NSC5)
inactive: [2] 0.018 | [5] -0.03

(continued)

HNRNPL (UniProt P14866)
inactive: [1] -0.124 | [2] -0.22 | [4] -0.039 | [5] 0.049

HMGXB4 (UniProt Q9UGU5)
inactive: [2] 0.39 | [5] -0.054

HTD2 (UniProt P86397)
inactive: [1] -0.017 | [2] -0.101 | [3] -0.06 | [5] 0.373

HTR1F (UniProt P30939)
inactive: [2] 0.114 | [5] 0.261

HLA-E (UniProt P13747)
inactive: [1] 0.1 | [2] 0.052 | [4] -0.229 | [5] 0.007

ID1 (UniProt P41134)
inactive: [1] 0.057 | [4] 0.01

HIF1AN (UniProt Q9NWT6)
inactive: [1] -0.043 | [3] 0.08 | [4] 0.104

HUWE1, A0A087X1S3
inactive: [1] -0.145 | [2] -0.008 | [4] 0.002 | [5] 0.121

HNRNPK isoform 3 (UniProt P61978)
inactive: [1] 0.014 | [3] 0.074 | [4] 0.061

HSPBAP1 (UniProt Q96EW2)
inactive: [2] -0.027 | [3] -0.082 | [5] 0.161

HOMER2 (UniProt Q9NSB8)
inactive: [2] -0.028 | [3] -0.178 | [4] -0.086 | [5] -0.08

HMG20B (UniProt Q9P0W2)
inactive: [1] -0.02 | [2] 0.033 | [5] 0.082

HSCB (UniProt Q8IWL3)
inactive: [2] -0.034 | [3] -0.003 | [4] -0.083 | [5] 0.012

HOXD9 (UniProt P28356)
inactive: [2] -0.017 | [3] 0.238 | [5] 0.033

HMCES (UniProt Q96FZ2)
inactive: [1] -0.226 | [4] -0.011

ICMT (UniProt O60725)
inactive: [1] 0.047 | [3] 0.115 | [4] 0.07

IBTK (UniProt Q9P2D0)
inactive: [1] -0.159 | [2] -0.105 | [4] 0.182 | [5] -0.043

HGFAC (UniProt Q04756)
inactive: [1] -0.12 | [4] 0.091
